The results in this text go back to paper doi:10.1101/2025.09.22.677724.

Sequences of proteins named here, by UniProt entry; tags and fusion partners are left off.
UniProt Q10428: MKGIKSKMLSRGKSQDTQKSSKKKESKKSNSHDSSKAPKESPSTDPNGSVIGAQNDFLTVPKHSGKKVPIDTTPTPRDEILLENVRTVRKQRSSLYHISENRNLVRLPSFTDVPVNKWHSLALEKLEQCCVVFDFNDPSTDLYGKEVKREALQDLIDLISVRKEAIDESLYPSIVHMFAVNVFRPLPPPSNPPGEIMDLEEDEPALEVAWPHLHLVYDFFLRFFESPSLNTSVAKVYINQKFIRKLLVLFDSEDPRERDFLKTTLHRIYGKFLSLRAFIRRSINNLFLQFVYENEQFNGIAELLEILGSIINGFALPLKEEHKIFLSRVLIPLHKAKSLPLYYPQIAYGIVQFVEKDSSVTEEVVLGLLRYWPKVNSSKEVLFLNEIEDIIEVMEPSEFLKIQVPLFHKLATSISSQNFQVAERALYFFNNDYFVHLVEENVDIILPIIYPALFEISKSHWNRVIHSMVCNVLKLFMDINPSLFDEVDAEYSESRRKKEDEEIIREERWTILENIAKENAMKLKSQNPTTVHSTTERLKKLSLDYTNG

These are yes or no findings as the source states them, for the method shown. Some entries that bind do so weakly or less than the wild type.

Sequences and labels used below:
B1: Sgo1 (shugoshin), Gal4 activation domain prey (protein, UniProt Q9P7A0 1-319)
chain: MNFQFINSNINNEDKLPMESLKKKFLKQNREIIKINTQLSIKIRESENEIQDLIQENFTLKSYLVKLEARFRNQSQTEDLLKNFFPEIQTIHKKISQVQSLLKIIEKKCSSDFLEANVKSQFTTCENKDSKEDYQILHNKRLEYVSFNDELKSLETGQPLYCFQDFQKKVHGPPALSEKPGKCILKDKTNAHVNKIPQDEVNYSLPQKNITIFSKELKENEFESINEGETEEEKAKTSNVCVCIPCKSAEQITDLKGQATGDSSPCDFEESQPRINGREKLRRSVKVINYAIPSLRTKLRRDFDLPSDRKRKRHPRGKA
B2: Sgo1-N29I, Gal4 activation domain prey (protein, UniProt Q9P7A0 1-319)
chain: MNFQFINSNINNEDKLPMESLKKKFLKQIREIIKINTQLSIKIRESENEIQDLIQENFTLKSYLVKLEARFRNQSQTEDLLKNFFPEIQTIHKKISQVQSLLKIIEKKCSSDFLEANVKSQFTTCENKDSKEDYQILHNKRLEYVSFNDELKSLETGQPLYCFQDFQKKVHGPPALSEKPGKCILKDKTNAHVNKIPQDEVNYSLPQKNITIFSKELKENEFESINEGETEEEKAKTSNVCVCIPCKSAEQITDLKGQATGDSSPCDFEESQPRINGREKLRRSVKVINYAIPSLRTKLRRDFDLPSDRKRKRHPRGKA
B3: Sgo1-L185A, Gal4 activation domain prey (protein, UniProt Q9P7A0 1-319)
chain: MNFQFINSNINNEDKLPMESLKKKFLKQNREIIKINTQLSIKIRESENEIQDLIQENFTLKSYLVKLEARFRNQSQTEDLLKNFFPEIQTIHKKISQVQSLLKIIEKKCSSDFLEANVKSQFTTCENKDSKEDYQILHNKRLEYVSFNDELKSLETGQPLYCFQDFQKKVHGPPALSEKPGKCIAKDKTNAHVNKIPQDEVNYSLPQKNITIFSKELKENEFESINEGETEEEKAKTSNVCVCIPCKSAEQITDLKGQATGDSSPCDFEESQPRINGREKLRRSVKVINYAIPSLRTKLRRDFDLPSDRKRKRHPRGKA
B4: Sgo1 (amino acid 81-211), Gal4 activation domain prey (domain or fragment, UniProt Q9P7A0 81-211)
chain: LKNFFPEIQTIHKKISQVQSLLKIIEKKCSSDFLEANVKSQFTTCENKDSKEDYQILHNKRLEYVSFNDELKSLETGQPLYCFQDFQKKVHGPPALSEKPGKCILKDKTNAHVNKIPQDEVNYSLPQKNIT
B5: Sgo1-T189A (amino acid 81-211), Gal4 activation domain prey (domain or fragment, UniProt Q9P7A0 81-211)
chain: LKNFFPEIQTIHKKISQVQSLLKIIEKKCSSDFLEANVKSQFTTCENKDSKEDYQILHNKRLEYVSFNDELKSLETGQPLYCFQDFQKKVHGPPALSEKPGKCILKDKANAHVNKIPQDEVNYSLPQKNIT
B6: Sgo1-T189E (amino acid 81-211), Gal4 activation domain prey (domain or fragment, UniProt Q9P7A0 81-211)
chain: LKNFFPEIQTIHKKISQVQSLLKIIEKKCSSDFLEANVKSQFTTCENKDSKEDYQILHNKRLEYVSFNDELKSLETGQPLYCFQDFQKKVHGPPALSEKPGKCILKDKENAHVNKIPQDEVNYSLPQKNIT

The target in one test is Par1 (PP2A regulatory B56 subunit), Gal4 DNA-binding domain bait (S. pombe) (UniProt Q10428). Description: two-hybrid.
For B1, the binding result is “binds”.

With B2, the binding entry is on record as “no binding”.

The target of the next test is T1, Slp1 (Cdc20 homolog), Gal4 DNA-binding domain bait (S. pombe) (UniProt P78972).
T1 sequence: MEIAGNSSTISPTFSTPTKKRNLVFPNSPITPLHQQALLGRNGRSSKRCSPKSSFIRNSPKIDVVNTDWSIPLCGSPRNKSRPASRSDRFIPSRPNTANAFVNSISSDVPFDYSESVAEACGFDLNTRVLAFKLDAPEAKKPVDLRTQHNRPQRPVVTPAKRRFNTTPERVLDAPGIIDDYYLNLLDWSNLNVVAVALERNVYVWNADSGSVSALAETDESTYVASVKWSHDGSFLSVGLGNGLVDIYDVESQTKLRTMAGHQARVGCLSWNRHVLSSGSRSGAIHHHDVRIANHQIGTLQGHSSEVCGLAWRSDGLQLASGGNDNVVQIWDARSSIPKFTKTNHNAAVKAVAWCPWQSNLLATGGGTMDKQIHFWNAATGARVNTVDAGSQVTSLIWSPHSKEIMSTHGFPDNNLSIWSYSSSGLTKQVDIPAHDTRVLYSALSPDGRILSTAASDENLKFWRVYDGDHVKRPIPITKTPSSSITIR
Description: two-hybrid.
For the molecule B1, the binding entry is recorded as “binds”.

B3: the binding result was “binds”.

For the molecule B4, the binding entry is on record as “binds”.

Take B5: the binding result is reported as “binds”.

B6: the binding entry is on record as “binds”.
